Among the data in article PMC7793253, “CEP290 is essential for the initiation of ciliary transition zone assembly” (PLoS Biology, 2020) are binding values, retold here.

The chains behind the UniProt entries cited, without tags or fusion partners.
UniProt O18338: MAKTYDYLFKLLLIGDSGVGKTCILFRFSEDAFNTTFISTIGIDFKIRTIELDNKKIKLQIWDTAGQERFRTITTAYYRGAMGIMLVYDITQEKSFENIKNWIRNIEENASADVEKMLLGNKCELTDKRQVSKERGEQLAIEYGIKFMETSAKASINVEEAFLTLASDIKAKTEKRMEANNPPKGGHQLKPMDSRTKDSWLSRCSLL

These are yes or no findings as the source states them, for the method shown. For some of these results: In cells and extracts the contact can be indirect. Some binding calls cover weakened binding; strength is not graded here. For some of these results: Tags and fused reporters may be left off the sequences shown.

In one experiment the target is T1, DZIP1-GFP (Drosophila) (UniProt Q9VC70).
T1 sequence: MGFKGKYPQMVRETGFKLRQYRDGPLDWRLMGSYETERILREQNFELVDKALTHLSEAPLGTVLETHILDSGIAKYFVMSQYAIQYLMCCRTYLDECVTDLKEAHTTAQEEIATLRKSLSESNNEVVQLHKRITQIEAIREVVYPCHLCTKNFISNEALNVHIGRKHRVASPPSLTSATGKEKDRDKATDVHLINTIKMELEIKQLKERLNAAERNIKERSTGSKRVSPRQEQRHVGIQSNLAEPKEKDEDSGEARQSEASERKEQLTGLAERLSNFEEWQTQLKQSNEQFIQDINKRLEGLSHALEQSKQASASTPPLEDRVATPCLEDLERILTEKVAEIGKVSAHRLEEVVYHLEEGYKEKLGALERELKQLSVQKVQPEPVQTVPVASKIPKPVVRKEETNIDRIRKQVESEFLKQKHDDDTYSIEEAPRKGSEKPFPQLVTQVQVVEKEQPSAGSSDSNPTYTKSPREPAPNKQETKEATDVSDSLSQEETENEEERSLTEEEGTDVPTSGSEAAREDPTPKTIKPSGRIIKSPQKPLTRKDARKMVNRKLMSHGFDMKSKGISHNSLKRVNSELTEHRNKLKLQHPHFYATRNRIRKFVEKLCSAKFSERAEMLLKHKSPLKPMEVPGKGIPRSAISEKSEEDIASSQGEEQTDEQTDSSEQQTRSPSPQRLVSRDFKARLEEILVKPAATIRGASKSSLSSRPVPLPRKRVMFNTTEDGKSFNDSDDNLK
Description: co-IP; Drosophila S2 cells transiently transfected, 48 h; lysis in 10 mM Tris pH 7.5, 150 mM NaCl, 0.5 mM EDTA, 0.5% NP-40; anti-GFP nanobody agarose (GFP-trap) beads, 1 h at 4°C; blot with anti-GFP and anti-HA.

In experiment [1] the target is T2, DAZ interacting zinc finger protein 1 (DZIP1), yeast two-hybrid bait in pGBKT7 (Drosophila) (UniProt Q9VC70).
T2 sequence: T1 sequence
Description: two-hybrid; DZIP1 in pGBKT7, CEP290 fragments in pGADT7, yeast strain AH109; colonies from SD-Leu-Trp tested on SD-Ade-Leu-Trp-His plates, 5 d at 30°C.

In experiment [2] the target is T3, CEP290-N-GFP (aa 1–878) (Drosophila) (UniProt Q9W0M1).
T3 sequence: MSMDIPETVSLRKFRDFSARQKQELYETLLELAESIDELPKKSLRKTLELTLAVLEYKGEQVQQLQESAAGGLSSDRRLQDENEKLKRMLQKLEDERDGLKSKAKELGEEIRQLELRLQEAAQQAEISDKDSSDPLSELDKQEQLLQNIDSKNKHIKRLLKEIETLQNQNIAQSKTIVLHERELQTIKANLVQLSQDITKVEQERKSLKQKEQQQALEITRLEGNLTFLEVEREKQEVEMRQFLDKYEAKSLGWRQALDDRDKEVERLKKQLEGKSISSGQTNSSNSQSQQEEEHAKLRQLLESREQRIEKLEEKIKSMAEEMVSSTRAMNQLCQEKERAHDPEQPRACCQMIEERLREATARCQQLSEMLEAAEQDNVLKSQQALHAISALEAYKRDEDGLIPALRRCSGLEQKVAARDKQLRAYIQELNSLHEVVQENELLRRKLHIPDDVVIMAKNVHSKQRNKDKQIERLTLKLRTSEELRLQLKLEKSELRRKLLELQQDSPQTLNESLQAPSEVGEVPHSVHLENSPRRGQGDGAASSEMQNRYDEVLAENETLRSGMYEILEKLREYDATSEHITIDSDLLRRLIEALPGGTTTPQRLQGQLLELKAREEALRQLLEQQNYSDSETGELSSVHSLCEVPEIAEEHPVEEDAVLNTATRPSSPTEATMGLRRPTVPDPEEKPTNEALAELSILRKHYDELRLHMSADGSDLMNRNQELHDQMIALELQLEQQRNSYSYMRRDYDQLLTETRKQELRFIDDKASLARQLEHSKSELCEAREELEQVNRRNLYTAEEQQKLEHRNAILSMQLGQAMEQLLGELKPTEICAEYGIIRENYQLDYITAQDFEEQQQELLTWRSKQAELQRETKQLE
Description: co-IP; Drosophila S2 cells transiently transfected, 48 h; lysis in 10 mM Tris pH 7.5, 150 mM NaCl, 0.5 mM EDTA, 0.5% NP-40; anti-GFP nanobody agarose (GFP-trap) beads, 1 h at 4°C; blot with anti-GFP and anti-HA.

On to Rab8-HA (from UniProt O18338 1-207), for which the binding entry with DZIP1-GFP (Drosophila) is “binds”.

B1: CEP290-N (aa 1–887), yeast two-hybrid prey in pGADT7 (domain or fragment, UniProt Q9W0M1 1-887)
chain: MSMDIPETVSLRKFRDFSARQKQELYETLLELAESIDELPKKSLRKTLELTLAVLEYKGEQVQQLQESAAGGLSSDRRLQDENEKLKRMLQKLEDERDGLKSKAKELGEEIRQLELRLQEAAQQAEISDKDSSDPLSELDKQEQLLQNIDSKNKHIKRLLKEIETLQNQNIAQSKTIVLHERELQTIKANLVQLSQDITKVEQERKSLKQKEQQQALEITRLEGNLTFLEVEREKQEVEMRQFLDKYEAKSLGWRQALDDRDKEVERLKKQLEGKSISSGQTNSSNSQSQQEEEHAKLRQLLESREQRIEKLEEKIKSMAEEMVSSTRAMNQLCQEKERAHDPEQPRACCQMIEERLREATARCQQLSEMLEAAEQDNVLKSQQALHAISALEAYKRDEDGLIPALRRCSGLEQKVAARDKQLRAYIQELNSLHEVVQENELLRRKLHIPDDVVIMAKNVHSKQRNKDKQIERLTLKLRTSEELRLQLKLEKSELRRKLLELQQDSPQTLNESLQAPSEVGEVPHSVHLENSPRRGQGDGAASSEMQNRYDEVLAENETLRSGMYEILEKLREYDATSEHITIDSDLLRRLIEALPGGTTTPQRLQGQLLELKAREEALRQLLEQQNYSDSETGELSSVHSLCEVPEIAEEHPVEEDAVLNTATRPSSPTEATMGLRRPTVPDPEEKPTNEALAELSILRKHYDELRLHMSADGSDLMNRNQELHDQMIALELQLEQQRNSYSYMRRDYDQLLTETRKQELRFIDDKASLARQLEHSKSELCEAREELEQVNRRNLYTAEEQQKLEHRNAILSMQLGQAMEQLLGELKPTEICAEYGIIRENYQLDYITAQDFEEQQQELLTWRSKQAELQRETKQLEGLLHVANEQ
Take B1: the binding entry in experiment [1] was “binds”.

B2: CEP290-ΔN (aa 888–1978), yeast two-hybrid prey in pGADT7 (domain or fragment, UniProt Q9W0M1 888-1978)
chain: IHSQQRLLNEITDNHINLRHLVADLQSSSDEKLMLAKVQRDLDSVKAECSRLETEREKLQLKADCLQTQLEASELSLKQTQQDFQQERTNSDIKHKFLQHSLFMLKDKYAKFTPLVFLTNFVFAYQKFQRRLEEEQVQQRHRDHTALIDEVTAVVQAKIGLNEESSQQLVKLIKSETQTRLLEQRCEILQAKQEELVRELGELRMSQATDTEHWSTIQALFGEGEPRSQLKVDAETNTDAVAPNLAMRRAVQLIDRESSPIGSPLRKHPHLDTATQTLEAQVEFSETAVQTNGILSQQNQAVQTADAVEDNRRDSRAELQKMQETLQEANQRIEILGKQLEASRSESRESASPQGGVVEKTILSFHTLLLEKDQSIQKYQDLLQTERDQSQQALSKQVAENESLRATVNNLNFNIKTKDAEIQGLKEKLRQKPEVPVERNPSTDSRSSSSSDSSVNELTDEKIEELFESSSVERPPQEELEVPVEAGPENIVTEEPEGEEEKQDTEELKEVPTLHKQIKDLKDKLEYSERSLKTREEEVDILKEKLKLCQEREKSVESTVNPELDQLRIFLDEKDKHIKDLMDTLKNFHDDQQRYIKDTSNFSEDQIAKLAADLNRTEATNKIYHTQMEALRRQLANVTQREKQARDLSQSLRQQLLKRPVVSIKTELNARVKNENQLKRIQQLELDLDEARGQLQRQQTLLEAKRTRSANEVQLWEKQKRYQQQAEKTKARLEETELALEKTRALLQAARTTIARLEKDKQILESKLGRNGPPSNSSGGNNLKCCRTPSCPNLQHVGVSKFAPSPSESPETYTGPSSECSSPAHHHTQIFDQSQLDLIEALKSRIELQQRKIIAMELEGRGSNALTTELEKLQERCQAIEAQNIRLEARNLQLQLDSDLLRQGDSSDRLQKRIKHLEDYIMALKEEMARNESRRELGSGLKVSTNQGQSAEQTILSLRNLVEKLRSENKFLKDGRRSTESRSSMDSTPAEAARLQQQHAEALEKISALQQELQKRTTKCSQCGGRSKDAANEELKFIKEQLVKKTQLLQKAKVLLTRAAAKEKVLREQLALWKRKCSELQNVPVIDEISE
Consider B2, for which, in experiment [1], the binding entry is “no binding”.

B3: DZIP1-HA (protein, UniProt Q9VC70 1-737)
chain: T1 sequence
As for B3, the binding result in experiment [2] is “binds”.
